The list shows a part of the results.

By UniProt entry, the sequences of proteins in these tests, tags left out. Where a name states a change or a piece, a line headed by the entry shows the natural chain unless it says otherwise.
UniProt Q8N3C7: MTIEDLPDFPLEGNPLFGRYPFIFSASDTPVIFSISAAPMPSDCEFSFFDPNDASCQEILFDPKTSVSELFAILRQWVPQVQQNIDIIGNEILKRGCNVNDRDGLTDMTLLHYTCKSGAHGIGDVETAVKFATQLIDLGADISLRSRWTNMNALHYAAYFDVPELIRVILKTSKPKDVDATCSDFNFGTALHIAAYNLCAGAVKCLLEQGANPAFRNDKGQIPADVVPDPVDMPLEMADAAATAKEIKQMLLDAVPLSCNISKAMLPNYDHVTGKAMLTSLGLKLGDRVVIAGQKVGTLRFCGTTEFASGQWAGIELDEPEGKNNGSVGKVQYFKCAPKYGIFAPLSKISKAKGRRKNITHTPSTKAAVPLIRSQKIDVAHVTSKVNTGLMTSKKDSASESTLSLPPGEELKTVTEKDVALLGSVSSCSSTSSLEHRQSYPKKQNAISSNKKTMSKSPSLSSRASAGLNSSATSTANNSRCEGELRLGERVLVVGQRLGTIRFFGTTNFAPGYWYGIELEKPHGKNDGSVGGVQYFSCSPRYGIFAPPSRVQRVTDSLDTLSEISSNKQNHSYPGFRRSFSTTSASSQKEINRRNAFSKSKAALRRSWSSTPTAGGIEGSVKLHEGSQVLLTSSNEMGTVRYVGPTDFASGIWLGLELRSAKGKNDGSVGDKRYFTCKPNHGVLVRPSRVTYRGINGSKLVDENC
UniProt P09496: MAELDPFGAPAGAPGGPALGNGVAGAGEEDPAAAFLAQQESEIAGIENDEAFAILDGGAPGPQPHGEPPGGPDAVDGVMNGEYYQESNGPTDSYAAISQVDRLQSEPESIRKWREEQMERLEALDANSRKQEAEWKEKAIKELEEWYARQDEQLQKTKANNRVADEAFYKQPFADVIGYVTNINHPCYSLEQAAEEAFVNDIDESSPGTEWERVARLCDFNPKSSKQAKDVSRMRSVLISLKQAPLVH
UniProt Q00610: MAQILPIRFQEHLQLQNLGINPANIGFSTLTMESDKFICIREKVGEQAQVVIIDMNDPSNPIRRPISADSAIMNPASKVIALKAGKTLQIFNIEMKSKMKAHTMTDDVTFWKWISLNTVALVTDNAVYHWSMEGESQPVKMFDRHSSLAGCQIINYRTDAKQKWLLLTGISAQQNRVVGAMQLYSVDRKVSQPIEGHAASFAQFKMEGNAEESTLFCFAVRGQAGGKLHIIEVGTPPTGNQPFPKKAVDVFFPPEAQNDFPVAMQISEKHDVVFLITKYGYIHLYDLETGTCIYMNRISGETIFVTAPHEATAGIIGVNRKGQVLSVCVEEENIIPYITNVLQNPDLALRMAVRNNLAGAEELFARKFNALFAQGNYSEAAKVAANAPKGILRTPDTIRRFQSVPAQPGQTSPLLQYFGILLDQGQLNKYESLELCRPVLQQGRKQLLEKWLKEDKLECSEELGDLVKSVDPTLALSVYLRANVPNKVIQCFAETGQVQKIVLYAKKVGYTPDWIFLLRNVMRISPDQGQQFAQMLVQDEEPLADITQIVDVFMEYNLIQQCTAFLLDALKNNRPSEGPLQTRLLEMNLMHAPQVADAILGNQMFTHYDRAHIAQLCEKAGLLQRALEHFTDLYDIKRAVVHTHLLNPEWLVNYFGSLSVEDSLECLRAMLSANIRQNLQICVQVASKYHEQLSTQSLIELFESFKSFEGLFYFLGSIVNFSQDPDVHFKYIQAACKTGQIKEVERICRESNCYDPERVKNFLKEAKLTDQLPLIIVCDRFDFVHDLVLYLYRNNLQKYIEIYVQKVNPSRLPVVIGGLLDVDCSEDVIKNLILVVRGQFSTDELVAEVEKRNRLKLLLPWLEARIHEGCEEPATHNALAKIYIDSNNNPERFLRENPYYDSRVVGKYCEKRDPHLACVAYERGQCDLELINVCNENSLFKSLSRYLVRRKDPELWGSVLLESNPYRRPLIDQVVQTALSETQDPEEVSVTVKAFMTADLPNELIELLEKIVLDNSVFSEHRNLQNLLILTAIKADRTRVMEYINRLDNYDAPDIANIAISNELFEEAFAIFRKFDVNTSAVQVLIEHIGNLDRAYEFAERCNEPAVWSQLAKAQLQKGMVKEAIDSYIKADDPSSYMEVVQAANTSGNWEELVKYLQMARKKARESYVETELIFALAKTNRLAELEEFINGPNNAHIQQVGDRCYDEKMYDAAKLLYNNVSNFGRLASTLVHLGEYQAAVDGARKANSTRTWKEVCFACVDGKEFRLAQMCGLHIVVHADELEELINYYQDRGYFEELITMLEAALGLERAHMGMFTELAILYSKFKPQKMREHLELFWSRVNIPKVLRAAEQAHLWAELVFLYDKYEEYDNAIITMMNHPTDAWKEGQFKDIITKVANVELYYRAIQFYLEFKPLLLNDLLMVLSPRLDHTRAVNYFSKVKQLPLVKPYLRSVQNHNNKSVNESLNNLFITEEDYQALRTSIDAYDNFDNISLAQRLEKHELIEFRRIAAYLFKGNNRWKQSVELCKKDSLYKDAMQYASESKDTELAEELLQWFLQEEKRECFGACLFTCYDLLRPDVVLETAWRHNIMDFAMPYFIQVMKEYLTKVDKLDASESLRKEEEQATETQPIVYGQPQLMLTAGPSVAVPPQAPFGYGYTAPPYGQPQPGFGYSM
UniProt Q9NWW5: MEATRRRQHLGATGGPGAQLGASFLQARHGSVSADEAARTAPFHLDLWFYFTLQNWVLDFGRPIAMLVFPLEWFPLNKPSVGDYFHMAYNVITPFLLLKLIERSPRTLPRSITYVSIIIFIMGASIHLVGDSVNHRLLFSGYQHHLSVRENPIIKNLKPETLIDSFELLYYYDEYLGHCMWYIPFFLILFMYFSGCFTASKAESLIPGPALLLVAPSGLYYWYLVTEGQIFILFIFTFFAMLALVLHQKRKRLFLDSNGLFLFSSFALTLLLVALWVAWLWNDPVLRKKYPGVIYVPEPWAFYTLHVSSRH
UniProt Q96NY7: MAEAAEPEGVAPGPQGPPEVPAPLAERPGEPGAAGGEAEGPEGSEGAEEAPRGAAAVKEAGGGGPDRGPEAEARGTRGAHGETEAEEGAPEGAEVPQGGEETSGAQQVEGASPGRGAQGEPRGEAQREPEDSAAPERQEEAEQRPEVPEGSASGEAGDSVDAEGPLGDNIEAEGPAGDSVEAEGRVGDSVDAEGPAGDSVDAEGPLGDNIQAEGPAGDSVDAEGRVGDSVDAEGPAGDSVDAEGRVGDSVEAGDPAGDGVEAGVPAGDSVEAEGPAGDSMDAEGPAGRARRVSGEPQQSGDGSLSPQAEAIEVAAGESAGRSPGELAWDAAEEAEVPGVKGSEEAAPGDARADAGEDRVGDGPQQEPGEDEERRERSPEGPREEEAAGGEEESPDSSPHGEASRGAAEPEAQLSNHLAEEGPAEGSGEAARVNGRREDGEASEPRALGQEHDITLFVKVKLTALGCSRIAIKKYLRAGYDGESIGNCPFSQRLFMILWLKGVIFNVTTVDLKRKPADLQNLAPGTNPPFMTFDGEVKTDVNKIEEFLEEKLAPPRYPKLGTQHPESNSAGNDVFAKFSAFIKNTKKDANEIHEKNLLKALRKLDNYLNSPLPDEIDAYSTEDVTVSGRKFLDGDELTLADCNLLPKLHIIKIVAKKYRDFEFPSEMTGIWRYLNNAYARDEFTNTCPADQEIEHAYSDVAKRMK
UniProt Q14677: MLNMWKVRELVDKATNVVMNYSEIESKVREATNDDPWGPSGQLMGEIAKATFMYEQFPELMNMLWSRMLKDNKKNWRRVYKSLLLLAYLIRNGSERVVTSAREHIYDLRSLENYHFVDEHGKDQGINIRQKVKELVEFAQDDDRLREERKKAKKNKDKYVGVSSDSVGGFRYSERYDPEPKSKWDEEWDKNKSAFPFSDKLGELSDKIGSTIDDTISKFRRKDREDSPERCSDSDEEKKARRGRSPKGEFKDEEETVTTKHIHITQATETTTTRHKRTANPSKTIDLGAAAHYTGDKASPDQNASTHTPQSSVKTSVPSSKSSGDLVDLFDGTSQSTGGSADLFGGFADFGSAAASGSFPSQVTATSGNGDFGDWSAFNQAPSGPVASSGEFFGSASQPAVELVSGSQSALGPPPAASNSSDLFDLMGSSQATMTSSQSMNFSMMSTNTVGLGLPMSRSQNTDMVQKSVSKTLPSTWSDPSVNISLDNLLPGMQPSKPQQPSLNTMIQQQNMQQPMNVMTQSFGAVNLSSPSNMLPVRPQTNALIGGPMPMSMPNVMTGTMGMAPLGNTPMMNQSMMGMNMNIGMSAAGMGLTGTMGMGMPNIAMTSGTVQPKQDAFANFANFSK
UniProt O75503: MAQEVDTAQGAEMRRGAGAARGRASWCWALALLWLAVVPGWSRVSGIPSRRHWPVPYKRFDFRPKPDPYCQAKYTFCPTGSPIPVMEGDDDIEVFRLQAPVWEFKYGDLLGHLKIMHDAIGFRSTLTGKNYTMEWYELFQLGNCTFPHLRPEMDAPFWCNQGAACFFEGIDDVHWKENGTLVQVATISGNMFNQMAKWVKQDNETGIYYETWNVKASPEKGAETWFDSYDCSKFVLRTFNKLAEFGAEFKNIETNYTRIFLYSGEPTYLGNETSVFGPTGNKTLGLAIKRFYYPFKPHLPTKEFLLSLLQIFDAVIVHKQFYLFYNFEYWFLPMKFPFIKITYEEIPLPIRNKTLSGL
UniProt P51797: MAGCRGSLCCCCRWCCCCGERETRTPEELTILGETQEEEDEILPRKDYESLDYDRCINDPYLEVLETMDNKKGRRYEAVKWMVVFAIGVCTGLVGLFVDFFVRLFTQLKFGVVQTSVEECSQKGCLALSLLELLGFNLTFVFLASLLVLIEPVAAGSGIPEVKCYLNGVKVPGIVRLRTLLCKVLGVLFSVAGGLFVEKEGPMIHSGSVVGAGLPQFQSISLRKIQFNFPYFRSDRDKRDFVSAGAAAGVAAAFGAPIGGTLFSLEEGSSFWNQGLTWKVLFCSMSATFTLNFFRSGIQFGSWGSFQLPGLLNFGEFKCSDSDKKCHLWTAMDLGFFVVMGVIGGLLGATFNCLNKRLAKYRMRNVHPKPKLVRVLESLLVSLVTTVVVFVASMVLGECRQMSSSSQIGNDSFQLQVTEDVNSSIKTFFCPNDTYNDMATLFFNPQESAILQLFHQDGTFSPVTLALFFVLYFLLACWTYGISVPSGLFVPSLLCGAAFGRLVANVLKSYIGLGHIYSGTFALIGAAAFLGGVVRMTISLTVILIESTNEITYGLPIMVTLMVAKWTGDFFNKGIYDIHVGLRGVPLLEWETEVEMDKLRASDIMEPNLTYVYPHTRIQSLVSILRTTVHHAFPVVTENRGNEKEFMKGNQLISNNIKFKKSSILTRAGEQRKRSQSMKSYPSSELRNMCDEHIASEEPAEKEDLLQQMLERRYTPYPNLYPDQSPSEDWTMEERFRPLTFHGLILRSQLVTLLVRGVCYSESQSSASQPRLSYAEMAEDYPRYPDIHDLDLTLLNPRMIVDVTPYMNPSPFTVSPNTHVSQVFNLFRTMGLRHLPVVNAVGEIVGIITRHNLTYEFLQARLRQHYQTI
UniProt O96017, whole entry, looked up: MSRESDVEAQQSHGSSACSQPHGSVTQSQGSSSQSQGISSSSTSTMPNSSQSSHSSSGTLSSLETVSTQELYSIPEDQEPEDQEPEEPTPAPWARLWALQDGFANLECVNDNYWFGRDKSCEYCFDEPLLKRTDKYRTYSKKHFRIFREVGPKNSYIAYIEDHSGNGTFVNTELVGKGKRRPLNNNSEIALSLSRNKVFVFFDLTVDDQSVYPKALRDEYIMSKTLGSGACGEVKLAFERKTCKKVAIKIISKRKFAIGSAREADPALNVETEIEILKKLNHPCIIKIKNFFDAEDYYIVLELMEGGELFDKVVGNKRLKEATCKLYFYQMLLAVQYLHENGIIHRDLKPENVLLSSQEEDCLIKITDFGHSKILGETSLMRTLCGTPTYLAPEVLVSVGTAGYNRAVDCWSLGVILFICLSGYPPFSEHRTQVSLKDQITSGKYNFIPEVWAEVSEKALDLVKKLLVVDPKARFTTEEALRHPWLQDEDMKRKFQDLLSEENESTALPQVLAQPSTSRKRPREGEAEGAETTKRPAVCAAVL
UniProt P49759: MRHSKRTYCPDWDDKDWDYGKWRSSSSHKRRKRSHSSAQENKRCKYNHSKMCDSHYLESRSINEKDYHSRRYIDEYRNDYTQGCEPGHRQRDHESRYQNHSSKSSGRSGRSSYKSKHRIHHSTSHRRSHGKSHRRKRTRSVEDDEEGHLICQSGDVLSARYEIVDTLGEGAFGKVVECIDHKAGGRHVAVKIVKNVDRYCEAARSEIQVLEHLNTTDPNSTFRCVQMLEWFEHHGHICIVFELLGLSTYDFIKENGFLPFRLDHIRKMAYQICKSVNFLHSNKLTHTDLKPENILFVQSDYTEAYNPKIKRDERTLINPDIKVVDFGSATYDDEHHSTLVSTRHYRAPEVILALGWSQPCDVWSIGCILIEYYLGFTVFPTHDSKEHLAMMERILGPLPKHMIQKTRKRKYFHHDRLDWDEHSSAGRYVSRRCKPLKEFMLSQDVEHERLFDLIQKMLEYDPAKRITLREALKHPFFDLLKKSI

Drawing on the supplement of paper PMC10849652, this text covers log2 fold change for 33 targets.

Compound in the first test: C1=CC2=C(C=CC(=C2)/C=C\3/C(=O)NC(=NCC4=CC=CS4)S3)N=C1
The experiment in a line: log2 fold change, soluble protein after heating vs DMSO (PISA); higher = thermal stabilisation; K562 lysate, 10 uM; active = over 0.2 and 3.5 SD of the protein, either way, in both replicates (recomputed). A digest of the protocol:
(§1)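 The values are log-two fold changes in thermal stability compared with solvent controls and come from duplicates. They were obtained by TMTpro 16plex LC-MS/MS, with channel sums equalised, on the supernatant after 21,000xg for 90 min. That supernatant came from crude K562 extract at 1 mg/mL protein treated with 10 μM compound for 30 min, heated for 3 min across 48°C-58°C, pooled and brought to 0.5% NP-40 at 4°C.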
Take CHPF2 (UniProt Q9P2E5): the log2 fold change is inactive: 0.255.
Take CHST10 (UniProt O43529): the log2 fold change was inactive: 0.017.
Regarding CLIP4 (UniProt Q8N3C7), the log2 fold change was inactive: 0.029.
As to CLUAP1 (UniProt Q96AJ1), the log2 fold change was inactive: 0.201.
For the target CISD3 (UniProt P0C7P0), the log2 fold change was inactive: -0.018.
As for CLUAP1 (UniProt I3L2E1), the log2 fold change was inactive: -0.404.
Still for that read-out and setting: as for CLTA (UniProt P09496), the figure is inactive: -0.025.
Take CKAP2L (UniProt Q8IYA6): the log2 fold change was inactive: 0.077.
Turning to CLK3 (UniProt P49761), the log2 fold change was inactive: 0.02.
Regarding CLTC (UniProt Q00610), the log2 fold change is inactive: 0.024.
Still for that read-out and setting: next, CHD9 (UniProt Q3L8U1): inactive: 0.191; CLN6 (UniProt Q9NWW5): inactive: 0.169.
For CMTM4 (UniProt Q8IZR5), the log2 fold change was inactive: -0.233.
Turning to CLIC6 (UniProt Q96NY7), the log2 fold change was inactive: 0.02.
CLINT1 isoform 3 (UniProt Q14677): the log2 fold change was inactive: -0.001.
Regarding CLASP1 isoform 4 (UniProt Q7Z460), the log2 fold change was inactive: -0.262.
With CHFR (UniProt Q96EP1), the log2 fold change is inactive: -0.068.
In the case of CLN5 (UniProt O75503), the log2 fold change is inactive: 0.016.
The same measure, in the same setting: next, CLCN6 isoform 5 (UniProt P51797): inactive: -0.073; CHEK2 (UniProt O96017): inactive: 0.05.

Compound in the next test: C1=CC2=NC=CN=C2C=C1/C=C/3\C(=O)NC(=O)S3
The description is as above. The gist of the method:
as §1
Take CLIP4 (UniProt Q8N3C7): the log2 fold change was inactive: -0.006.
On the same count and under the same terms, next, CLN8 (UniProt Q9UBY8): inactive: 0.234.
Consider CLCN2 (UniProt P51788), for which the log2 fold change was inactive: 0.039.
The same measure, in the same setting: as for CLUAP1 (UniProt I3L2E1), the figure is inactive: 0.068; as for CLTA (UniProt P09496), inactive: -0.014.
Regarding CLIP1 isoform 2 (UniProt P30622), the log2 fold change was inactive: -0.082.
With CLTC (UniProt Q00610), the log2 fold change was inactive: 0.029.
As for CHSY1 (UniProt Q86X52), the log2 fold change was inactive: -0.06.
Same read-out and setting: as for CNBP (UniProt P62633), the figure is inactive: -0.011; as for CLN6 (UniProt Q9NWW5), inactive: -0.111.
Same read-out and setting: as for CLIP2 (UniProt Q9UDT6), the figure is inactive: -0.05; as for CLIC6 (UniProt Q96NY7), inactive: 0.05.
Consider CLINT1 isoform 3 (UniProt Q14677), for which the log2 fold change is inactive: -0.026.
Take CLK1 isoform 3 (UniProt P49759): the log2 fold change is inactive: -0.048.
In the case of CLN3 (UniProt Q13286), the log2 fold change is inactive: -0.067.
As for CLN5 (UniProt O75503), the log2 fold change is inactive: 0.141.
Same read-out and setting: next, CLCN6 isoform 5 (UniProt P51797): inactive: -0.015; CLEC16A isoform 2 (UniProt Q2KHT3): inactive: -0.09.
As to CMTM6 (UniProt Q9NX76), the log2 fold change is inactive: -0.161.
Take CHPF (UniProt Q8IZ52): the log2 fold change was inactive: 0.084.
Take CHEK2 (UniProt O96017): the log2 fold change is inactive: 0.053.
For the target CHTF8 (UniProt P0CG13), the log2 fold change is inactive: -0.068.
For CLDN12 (UniProt P56749), the log2 fold change was inactive: -0.037.

Compound in another test: C1=CC=C(C=C1)C2=NC(=C(N2)C3=CC=NC=C3)C4=CC(=C(C=C4)Cl)O
The test is described as above. The gist of the method: as §1
In the case of CHPF2 (UniProt Q9P2E5), the log2 fold change is inactive: 0.075.
Turning to CLIP4 (UniProt Q8N3C7), the log2 fold change was inactive: 0.04.
On the same count and under the same terms, as for CLN8 (UniProt Q9UBY8), the figure is inactive: -0.015.
Turning to CLUAP1 (UniProt Q96AJ1), the log2 fold change is inactive: 0.039.
On the same count and under the same terms, next, CISD3 (UniProt P0C7P0): inactive: -0.025.
The same measure, in the same setting: next, CLCN2 (UniProt P51788): inactive: -0.044.
For the target CLUAP1 (UniProt I3L2E1), the log2 fold change is inactive: 0.102.
For the target CLTA (UniProt P09496), the log2 fold change is inactive: -0.007.
On to CKAP2L (UniProt Q8IYA6), for which the log2 fold change was inactive: -0.088.
On the same count and under the same terms, next, CLIP1 isoform 2 (UniProt P30622): inactive: -0.055; CLTC (UniProt Q00610): inactive: -0.008; CHD9 (UniProt Q3L8U1): inactive: 0.043.
As to CHSY1 (UniProt Q86X52), the log2 fold change is inactive: -0.023.
As to CLN6 (UniProt Q9NWW5), the log2 fold change is inactive: 0.225.
As to CLIC6 (UniProt Q96NY7), the log2 fold change is inactive: -0.04.
On to CLINT1 isoform 3 (UniProt Q14677), for which the log2 fold change was inactive: -0.095.
On the same count and under the same terms, next, CLK1 isoform 3 (UniProt P49759): inactive: 0.04; CHFR (UniProt Q96EP1): inactive: -0.027.
Still for that read-out and setting: as for CLN3 (UniProt Q13286), the figure is inactive: -0.011.
For CLCN6 isoform 5 (UniProt P51797), the log2 fold change was inactive: -0.157.
As for CLEC16A isoform 2 (UniProt Q2KHT3), the log2 fold change is inactive: -0.012.
Still for that read-out and setting: next, CMTM6 (UniProt Q9NX76): inactive: 0.036; CHPF (UniProt Q8IZ52): inactive: -0.13.
In the case of CHEK2 (UniProt O96017), the log2 fold change was inactive: 0.018.
On to CHTF8 (UniProt P0CG13), for which the log2 fold change was inactive: -0.01.
Take CLDN12 (UniProt P56749): the log2 fold change is inactive: 0.065.
